The source of these data is the odorant receptor screen of Mainland et al. (2015).

Chains of the proteins cited; added tags and fusions are not shown. A line that says so, or that is headed by a name, gives the form on record, which may keep a tag or linker.
OR11H13, as listed by the source: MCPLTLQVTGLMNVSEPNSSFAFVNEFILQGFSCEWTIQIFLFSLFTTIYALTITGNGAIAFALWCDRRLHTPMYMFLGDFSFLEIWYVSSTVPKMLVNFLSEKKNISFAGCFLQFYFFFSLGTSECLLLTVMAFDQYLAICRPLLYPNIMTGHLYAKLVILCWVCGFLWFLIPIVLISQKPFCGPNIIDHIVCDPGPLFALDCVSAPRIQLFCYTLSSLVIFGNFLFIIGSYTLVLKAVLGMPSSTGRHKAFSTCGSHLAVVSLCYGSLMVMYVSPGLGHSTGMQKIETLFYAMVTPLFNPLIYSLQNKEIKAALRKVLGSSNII

Among the test systems are OR10R2 clone 1400; OR10T2 clone 1032; OR10W1 R263Q clone 1176; OR10X1 clone 1368; OR10X1 clone 1516; OR10Z1 clone 1026; OR11A1 clone 1062; OR11H1 clone 1558; OR11H12 clone 1302; OR11H13 clone 1435; OR11H4 clone 1263; OR11H4 clone 1423; OR11H6 clone 1275; OR12D2 clone 1075; OR12D3 clone 1071; OR13A1 clone 1107; OR13C2 clone 1717.
Holding throughout (assay): odorant receptor activation (CRE luciferase / Renilla) (fold of no-odor wells); higher = more activation
Conditions in all cases: 100 µM

Test [1] relates to OR10V1 Q101L/V117A/Q123W clone 1520.
Test [2] deals with OR11L1 G108S/F117L/A142T/R171P clone 1031.
The subject of test [3] is OR12D2 V47F/L56P/S104F/F113L/L120R/V159I clone 1373.

SMILES strings stand for the structures. Several values for one entry are separate records, joined by “and”; a condition that tells them apart may be missing. Equal entries are not always repeated. The list shows a part of the results. Single wells; the ratio to wells without odorant was worked out here, and repeats agree poorly.

Regarding `CC(C)C(=O)O` [isobutyric acid], the odorant receptor activation in the test on OR10R2 clone 1400 was 0.837; in the test with OR10T2 clone 1032, 0.914; in test [1], 0.791 and 0.7; with OR10W1 R263Q clone 1176, 0.956; with OR10X1 clone 1368, 1.09; with OR10X1 clone 1516 it was 1.44 and 0.99. Moreover, the odorant receptor activation in the test on OR10Z1 clone 1026 is 0.762; in the test with OR11A1 clone 1062 it was 0.795; with OR11H1 clone 1558 it was 0.709; with OR11H12 clone 1302 it was 1.15 and 0.681; in the test with OR11H13 clone 1435, 0.688; in the test on OR11H4 clone 1263, 1.1 and 1.11. For the same molecule, the odorant receptor activation in the test with OR11H4 clone 1423 was 0.967; in the test with OR11H6 clone 1275 it was 0.789 and 0.712; in [2] it was 0.693; in test [3], 0.776; in the test with OR12D2 clone 1075 it was 0.897; with OR12D3 clone 1071 it was 1. Besides, the odorant receptor activation in the test with OR13A1 clone 1107 came out at 1.91; in the test on OR13C2 clone 1717, 0.98.
With `CC1COCc2cc3c(cc21)C(C)(C)C(C)C3(C)C` (centres undefined) [galaxolide], the odorant receptor activation with OR10R2 clone 1400 was 2.99; in the test on OR10T2 clone 1032, 2.97; in test [1], 2.21 and 6.56; in the test with OR10W1 R263Q clone 1176, 4.57; in the test with OR10X1 clone 1368, 4.66; in the test with OR10X1 clone 1516, 1.55 and 4.53. In addition, the odorant receptor activation in the test with OR10Z1 clone 1026 was 3.13; in the test with OR11A1 clone 1062, 2.94; in the test on OR11H1 clone 1558, 0.912 and 1.93; in the test with OR11H12 clone 1302 it was 1.54 and 4.29; in the test on OR11H13 clone 1435, 2.14; in the test on OR11H4 clone 1263 it was 1.72 and 1.34. The odorant receptor activation with OR11H4 clone 1423 worked out at 4.36; in [2], 2.12; in [3], 3.57; in the test on OR12D2 clone 1075, 3.03; in the test with OR12D3 clone 1071 it was 2.26; with OR13A1 clone 1107, 4.79.
With `CCCCCC(=O)O` [caproic acid], the odorant receptor activation with OR10R2 clone 1400 worked out at 0.154; with OR10T2 clone 1032, 0.72; in test [1], 0.802; in the test on OR10W1 R263Q clone 1176, 1.03; in the test on OR10X1 clone 1368, 0.188; with OR10X1 clone 1516, 1.17. In addition, the odorant receptor activation in the test with OR10Z1 clone 1026 was 0.918; in the test on OR11A1 clone 1062 it was 0.949; with OR11H1 clone 1558 it was 0.715; in the test with OR11H12 clone 1302, 0.782; in the test with OR11H13 clone 1435, 0.152; with OR11H4 clone 1263, 0.676. Moreover, the odorant receptor activation is 0.132 in the test on OR11H4 clone 1423; 0.744 with OR11H6 clone 1275; 0.979 in [2]; 0.23 in test [3]; 1.23 with OR12D2 clone 1075; 0.984 in the test on OR12D3 clone 1071. Further, the odorant receptor activation with OR13A1 clone 1107 amounted to 0.883; in the test on OR13C2 clone 1717, 0.732.
Consider `CC/C=C\CCO` [cis-3-hexen-1-ol], for which the odorant receptor activation in the test on OR10R2 clone 1400 amounted to 0.147; in the test on OR10T2 clone 1032, 0.87; in test [1], 0.995; in the test on OR10W1 R263Q clone 1176, 0.998; in the test with OR10X1 clone 1368, 0.202; in the test on OR10X1 clone 1516 it was 1.33. Also, the odorant receptor activation in the test on OR10Z1 clone 1026 worked out at 1.05; in the test with OR11A1 clone 1062, 0.78; with OR11H1 clone 1558, 0.89; in the test with OR11H12 clone 1302, 0.897; in the test with OR11H13 clone 1435, 0.213; in the test with OR11H4 clone 1263, 0.807. Further, the odorant receptor activation turned out to be 0.161 in the test with OR11H4 clone 1423; 0.914 in the test with OR11H6 clone 1275; 0.929 in test [2]; 0.226 in test [3]; 0.939 in the test with OR12D2 clone 1075; 0.978 with OR12D3 clone 1071. Further, the odorant receptor activation turned out to be 0.712 in the test on OR13A1 clone 1107 and 0.876 in the test with OR13C2 clone 1717.
Consider `CC12C=CCC1C1CCC3=CC(=O)CCC3(C)C1CC2` (centres undefined) [androstadienone], for which the odorant receptor activation is 0.896 with OR10R2 clone 1400; 1.15 in the test with OR10T2 clone 1032; 0.776 and 1.25 in test [1]; 0.863 in the test on OR10W1 R263Q clone 1176; 1.02 in the test with OR10X1 clone 1368; 1.18 and 1.31 in the test with OR10X1 clone 1516. The odorant receptor activation in the test with OR10Z1 clone 1026 is 0.909; with OR11A1 clone 1062, 2.36; in the test on OR11H12 clone 1302, 1.52 and 0.752; in the test with OR11H13 clone 1435, 0.86; in the test on OR11H4 clone 1263 it was 1.15 and 1.17; in the test on OR11H4 clone 1423, 1.02. Besides, the odorant receptor activation in the test on OR11H6 clone 1275 is 0.882 and 0.918; in test [2] it was 0.54; in [3], 0.898; with OR12D2 clone 1075 it was 5.18; with OR12D3 clone 1071 it was 1.21; with OR13A1 clone 1107, 2.37.
Regarding `C=CCc1ccc(OC(C)=O)c(OC)c1` [eugenol acetate], the odorant receptor activation stood at 1.77 with OR10R2 clone 1400; 1.68 with OR10T2 clone 1032; 2.21 in [1]; 1.82 in the test with OR10W1 R263Q clone 1176; 1.59 in the test with OR10X1 clone 1368; 1.96 with OR10X1 clone 1516. Also, the odorant receptor activation in the test on OR10Z1 clone 1026 was 2.01; in the test with OR11A1 clone 1062, 1.97; in the test with OR11H1 clone 1558, 1.76; in the test on OR11H12 clone 1302, 1.67; in the test with OR11H13 clone 1435, 1.41; with OR11H4 clone 1263, 1.52. Moreover, the odorant receptor activation with OR11H4 clone 1423 is 2.2; with OR11H6 clone 1275 it was 1.61; in test [2], 2.16; in test [3], 1.29; in the test on OR12D2 clone 1075 it was 1.64; in the test on OR12D3 clone 1071, 1.7. Also, the odorant receptor activation with OR13A1 clone 1107 amounted to 2.12; in the test on OR13C2 clone 1717, 3.29.
For `CC(=O)c1ccccc1` [acetophenone], the odorant receptor activation was 0.733 with OR10R2 clone 1400; 1.11 with OR10T2 clone 1032; 0.818 and 0.724 in [1]; 0.917 in the test on OR10W1 R263Q clone 1176; 0.926 in the test on OR10X1 clone 1368; 1.06 and 0.684 in the test on OR10X1 clone 1516. Moreover, the odorant receptor activation with OR10Z1 clone 1026 was 1.26; with OR11A1 clone 1062 it was 1.21; in the test with OR11H12 clone 1302 it was 1.3; with OR11H13 clone 1435, 1.03; with OR11H4 clone 1263, 1.42; in the test on OR11H4 clone 1423, 0.923. Besides, the odorant receptor activation in the test with OR11H6 clone 1275 worked out at 1.79; in test [2] it was 1.13; in test [3], 0.975; with OR12D2 clone 1075, 0.747; in the test with OR12D3 clone 1071, 1.07; in the test on OR13A1 clone 1107, 0.757.
